Measured values: patent EP1574569A1, “THREE-DIMENSIONAL STRUCTURE OF LIPOCALIN-TYPE PROSTAGLANDIN D SYNTHASE AND UTILIZATION OF THE SAME” (RIKEN, priority 2002, dated 2004)
Changes are numbered by the printed parent chain. At least one read-out could not be matched to a standard name with certainty.

What was measured:
Experiment in all cases: PGDS activity kinetics of L-PGDS mutants
Assay type in all cases: biochemical
Conditions in all cases: substrate PGH2, pH=8.0
[1] = target: T1, mouse L-PGDS, Wild Type(C65), Cys^89,186Ala construct, SEQ ID NO:1 (Mus musculus, UniProt O09114, C186A/C89A)
T1 sequence (O09114 25-189 C89A/C186A): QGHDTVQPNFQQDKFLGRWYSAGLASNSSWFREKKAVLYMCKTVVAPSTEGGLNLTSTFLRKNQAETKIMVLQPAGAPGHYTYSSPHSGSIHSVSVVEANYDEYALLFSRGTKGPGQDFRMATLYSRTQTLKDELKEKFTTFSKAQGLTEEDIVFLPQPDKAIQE
Source text: (§1) Since the preparation of recombinant protein having the same PGDS activity as purified wild-type enzyme is easy, Cys^89,186Ala construct was used for this purpose. Various mutants were expressed, purified to homogeneity and L-PGDS activities were compared at pH 8, 9 and 10 (Figure 8) .
(§2) After a candidate compound of L-PGDS inhibitor is selected, it is preferably contacted with the enzyme in the presence of the substrate (prostaglandin H2) to confirm an ability of the compound to inhibit the enzyme (see, for example, Shimizu, t., Yamamoto, S., and Hayaishi O. (1979), Purification and Properties of prostaglandin D synthase from rat brain, J. Biol. Chem., 254:5222-5228). The enzyme activity can be measured, for example, as follows:
(§3) The substrate [1-^14C]prostaglandin (PG)H2 is synthesized by reacting [1^-14C]arachidonic acid with cyclooxygenase. Since PGH2 is easily decomposed in an aqueous solution (half life: about 5 minutes), it is evaporated to dryness and stored at low temperature(-80°C). The enzyme reaction is performed by injecting 1 µL of PGH2 solution(acetone or non-volatile diethylenediglycohol solution) with a microsyringe to 49 µ L of 0.1 M phosphate buffer (pH8.0) containing 1 mM dithiothreitol (DTT) and the enzyme. After the reaction at 25 °C for 30 to 60 seconds, the reaction is quenched by the addition of 300 µL of ice-cold mixed solution of ether/methanol/0.1 M citric acid (30:4:1 v/v/v) followed by extraction the substrate and reaction product under acidic condition into ether layer. Subsequently, anhydrous sodium sulfate was added to dehydrate it. An aliquot of organic layer (about 50 µ L) is coated on silica gel thin layer in a low temperature room (4°C) and subjected to silica gel thin layer chromatography in a freezer (-20 °C) (developing solvent: ether/methanol/acetic acid (90:2:1 v/v/v) . After the development, radioactivity of PGD2 fraction and fraction other than it are measured to calculate an enzyme activity based on the conversion ratio to PGD2.
(§4) The site-specific mutagenesis was performed using a Quick change site-directed mutagenesis kit (Stratgene, Heiderberg, Germany). The DNA sequence was confirmed by the determination of cycle sequencing by a SequiTherm cycle sequencing kit (Epicentre Technologies, Madison, WI) followed by LI-COR model 4000L automatic DNA sequencer (LI-COR Inc., Lincoln, NE)

[2] = target: T2, mouse L-PGDS mutant R85E (Arg^85Glu) in Cys^89,186Ala construct (Mus musculus, UniProt O09114, C186A/C89A/R85E)
T2 sequence (O09114 25-189 R85E/C89A/C186A): T1 sequence (O09114 25-189 C89A/C186A) with R61E
Source text: as §1, §2, §3, §4

[3] = target: T3, mouse L-PGDS mutant S81A (Ser^81Ala) in Cys^89,186Ala construct (Mus musculus, UniProt O09114, C186A/C89A/S81A)
T3 sequence (O09114 25-189 S81A/C89A/C186A): T1 sequence (O09114 25-189 C89A/C186A) with S57A
Source text: as §1, §2, §3, §4

[4] = target: T4, mouse L-PGDS mutant K92E (Lys^92Glu) in Cys^89,186Ala construct (Mus musculus, UniProt O09114, C186A/C89A/K92E)
T4 sequence (O09114 25-189 C89A/K92E/C186A): T1 sequence (O09114 25-189 C89A/C186A) with K68E
Source text: as §1, §2, §3, §4

[5] = target: T5, mouse L-PGDS mutant F83I (Phe^83Ile) in Cys^89,186Ala construct (Mus musculus, UniProt O09114, C186A/C89A/F83I)
T5 sequence (O09114 25-189 F83I/C89A/C186A): T1 sequence (O09114 25-189 C89A/C186A) with F59I
Source text: as §1, §2, §3, §4

SMILES: CCCCC[C@H](O)/C=C/[C@@H]1[C@@H](C/C=C\CCCC(=O)O)[C@@H]2C[C@H]1OO2 [PGH2, prostaglandin H2]
- Kcat /Km [1]: 2.38 µM^-1Min^-1
- Kcat /Km [2]: 4.86 µM^-1Min^-1
- Kcat /Km [3]: 0.50 µM^-1Min^-1
- Kcat /Km [4]: 5.71 µM^-1Min^-1
- Kcat /Km [5]: 4.47 µM^-1Min^-1
